Several values for one entry are separate records, joined by “and”; a condition that tells them apart may be missing. Equal entries are not always repeated. Hit rate of the full screen: of about 390,000 compounds, about 4,000 (1%) were called active. The shares of active, inactive and inconclusive entries below differ from those in the screen. Calls come from the whole dose curve; as a rule, active = well fitted inhibition curve with a large enough effect; inconclusive = small, poorly fitted or top-dose-only effect, or another doubt; inactive = no such curve, though single readings can be large or run the other way. Potencies of inconclusive entries are doubtful fits and often do not repeat.
Target: DNA polymerase iota (Homo sapiens) (UniProt Q9UNA4)
Assay: qHTS for Inhibitors of Polymerase Iota
Details: Pol iota fluorescent replication assay, 10 min; series mostly up to 115 µM; activity, negative = inhibition: at the top concentration
How it was run: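 Pol iota at 10 nM preincubated 15 min with compounds at room temperature; reaction started with fluorescent substrate, 50 nM final. Fluorescence read kinetically at 0 and 10 min; buffer-only wells as negative control.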
Potency is the fitted concentration of half-maximal effect.

By UniProt entry, the sequences of proteins in these tests, tags left out. Where a name states a change or a piece, a line headed by the entry shows the natural chain unless it says otherwise.
UniProt Q9UNA4: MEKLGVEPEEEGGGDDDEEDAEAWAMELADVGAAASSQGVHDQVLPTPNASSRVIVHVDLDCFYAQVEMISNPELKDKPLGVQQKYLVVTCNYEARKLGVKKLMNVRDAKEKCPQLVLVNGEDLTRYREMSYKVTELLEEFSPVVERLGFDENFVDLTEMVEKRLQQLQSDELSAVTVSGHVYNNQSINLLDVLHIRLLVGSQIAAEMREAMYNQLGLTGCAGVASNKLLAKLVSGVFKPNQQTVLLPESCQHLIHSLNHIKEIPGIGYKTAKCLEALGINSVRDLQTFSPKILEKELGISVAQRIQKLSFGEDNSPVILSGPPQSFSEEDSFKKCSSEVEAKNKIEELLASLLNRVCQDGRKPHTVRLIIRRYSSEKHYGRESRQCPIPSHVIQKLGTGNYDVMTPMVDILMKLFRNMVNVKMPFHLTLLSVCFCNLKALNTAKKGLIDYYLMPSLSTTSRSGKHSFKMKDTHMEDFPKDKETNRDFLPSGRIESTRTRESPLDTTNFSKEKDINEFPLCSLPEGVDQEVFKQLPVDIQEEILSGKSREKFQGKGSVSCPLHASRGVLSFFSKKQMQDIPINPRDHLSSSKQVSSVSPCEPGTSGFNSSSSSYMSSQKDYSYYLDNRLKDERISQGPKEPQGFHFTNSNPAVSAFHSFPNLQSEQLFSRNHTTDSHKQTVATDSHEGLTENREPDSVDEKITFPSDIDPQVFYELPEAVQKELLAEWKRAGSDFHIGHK

Potency, inactive:
Cc1ccc(Nc2cc(=O)[nH]c(=O)[nH]2)cc1C

Potency, active:
CC(/C=C/c1ccco1)=N/NC(=O)Cc1cccs1 31.6 µM

Potency, inconclusive:
COc1cc(/C=C2/C(=O)NN(c3ccc(F)cc3)C2=O)cc([N+](=O)[O-])c1O 28.2 µM [inhibitor, single point]
CCNc1nc(C)nc2c1oc1ccccc12 70.8 µM [inhibitor, single point]
CCc1ccc(N=CC23c4ccccc4C(c4ccccc42)C2C(=O)N(c4ccc(OC)cc4)C(=O)C23)cc1 (stereo not given) 39.8 µM [inhibitor, single point]
CS/C(=N\S(=O)(=O)c1cccs1)NC(=O)CSc1nc2ccccc2s1 1.26 µM [inhibitor, full curve, poor fit] and 22.4 µM [inhibitor, partial curve, poor fit]
CC(C)OC(=O)CSc1nnc(-c2ccc(C(C)(C)C)cc2)n1N 35.5 µM [inhibitor, partial curve, poor fit]
Cc1ccc(S(=O)(=O)n2nc(OC(=O)c3ccco3)cc2N)cc1 39.8 µM [inhibitor, single point]
Cc1ccsc1/C=N/NC(=O)c1nnn(-c2nonc2N)c1-c1ccc2c(c1)OCO2 89.1 µM [inhibitor, partial curve, poor fit]
Cc1ccc2[nH]c(CSc3nnc(NC(=O)COc4ccccc4C)s3)cc(=O)c2c1 56.2 µM [inhibitor, partial curve, poor fit]
COc1cccc(C(=O)N2CC(=O)Nc3ccc(C)cc3C2c2ccc(F)cc2)c1OC (stereo not given) 10 µM [inhibitor, partial curve, poor fit]
O=S(=O)(c1ccccc1)N1N=C(c2cccs2)CC1c1ccc(Br)cc1 (stereo not given) 14.1 µM [inhibitor, partial curve, poor fit]
C[N+](C)(C)C[C@H](O)CC(=O)O 3.55 µM [inhibitor, full curve, poor fit]
N#CC1(C#N)C(c2ccccc2)OC23CCCCC2C1(C#N)C(=N)O3 (stereo not given) 25.1 µM [inhibitor, single point]
COc1ccc(NC(=O)C2CC(=O)N(Cc3ccc(C)cc3)C2)cc1S(=O)(=O)N1CCCCC1 (stereo not given) 56.2 µM [inhibitor, partial curve, poor fit]
O=C(Nc1ccccc1)C1=C(O)CC(c2ccoc2)CC1=Nc1ccccc1 (stereo not given) 3.16 µM [inhibitor, partial curve, poor fit]
CC(C)CC1Nc2ncnc(N3CCN(c4ccccn4)CC3)c2N(Cc2ccc(Cl)cc2)C1=O (stereo not given) 31.6 µM [inhibitor, full curve]
Nc1ccccc1C#CC(=O)c1ccccc1 11.2 µM [inhibitor, partial curve, poor fit]
CCc1nnc(NS(=O)(=O)c2ccc(N=Cc3c(C)[nH]n(-c4cccc(Cl)c4)c3=O)cc2)s1 39.8 µM [inhibitor, single point]
CN1C(=O)/C(=C/c2ccc(C(=O)Nc3ccc(O)cc3C(=O)O)cc2)SC1=S 28.2 µM [inhibitor, partial curve]
Cc1cc(N/N=C/c2ccc(O)cc2O)nc(-n2nc(C)cc2C)n1 112 µM [inhibitor, single point]
Cc1ccccc1NS(=O)(=O)c1ccc(C(=O)N2CCCC(C(F)(F)F)C2)cc1 (stereo not given) 100 µM [inhibitor, single point]
O=C(CCN1CCN(c2ccccc2)CC1)N/N=C/c1ccc([N+](=O)[O-])o1 20 µM [inhibitor, full curve]
Cc1cc(-n2c(C)cc(C(=O)CN3C(=O)NC4(CCCC4)C3=O)c2C)no1 20 µM [inhibitor, full curve, poor fit]
O=C(CSc1nnc(-c2ccccn2)n1Cc1ccco1)c1ccccc1 15.8 µM [inhibitor, partial curve, poor fit]
CCOC(=O)N1CCN(C(=O)CN(C2CCCCC2)S(C)(=O)=O)CC1 20 µM [inhibitor, partial curve, poor fit]
Cc1cccc(NC(=O)c2c(NC(=O)c3ccco3)sc3c2CCC(C(C)(C)C)C3)c1 (stereo not given) 70.8 µM [inhibitor, partial curve, poor fit]
O=c1oc2ccccc2c(O)c1Sc1ccc(Cl)cc1 14.1 µM [inhibitor, partial curve, poor fit]
Cc1cccc(N(CC(=O)NCCSCc2ccco2)S(=O)(=O)c2ccccc2)c1 35.5 µM [inhibitor, single point]
C=CCn1c(SCC(=O)N2CC(=O)Nc3ccccc32)nc2scc(-c3cccs3)c2c1=O 39.8 µM [inhibitor, single point]
C=CCn1c(SCc2ccc3c(c2)OCO3)nc2scc(-c3ccco3)c2c1=O 12.6 µM [inhibitor, full curve, poor fit]
COc1ccc(C(=O)N/C(N)=N/c2nc3ccccc3o2)cc1 28.2 µM [inhibitor, partial curve, poor fit]
CC(=O)c1ccc(N2CCN(S(=O)(=O)c3ccc4[nH]c5c(c4c3)CCCCC5)CC2)cc1 89.1 µM [inhibitor, single point]
CCn1nc(NC(=O)COC)c2cc3cc(C)ccc3nc21 11.2 µM [inhibitor, partial curve, poor fit]
CCOC(=O)c1cccc(NC(=O)c2cnn(-c3ccccc3)c2-n2cccc2)c1 100 µM [inhibitor, single point]
Cc1noc(C)c1CSc1nc2ccccc2c(=O)n1-c1ccc(Cl)cc1 79.4 µM [inhibitor, partial curve, poor fit]
CCOc1cc(/C=C\c2[nH]c(=O)[nH]c(=O)c2[N+](=O)[O-])ccc1OC(C)CC (stereo not given) 17.8 µM [inhibitor, full curve, poor fit]
CCC(=O)NCCc1nc(-c2ccccc2)no1 39.8 µM [inhibitor, single point]
N#Cc1nc(COc2cccc(Cl)c2)oc1NCc1ccco1 50.1 µM [inhibitor, partial curve, poor fit]
NS(=O)(=O)c1ccc(CNC(=O)c2csc3c2CCCC3)cc1 14.1 µM [inhibitor, single point]
CC(C)c1cc(N2CCN(C(=O)c3ccco3)CC2)n2c(nc3ccccc32)c1C#N 8.91 µM [inhibitor, full curve, poor fit]
Cc1oc2cc3oc(=O)c(CCC(=O)NCCCC(=O)O)c(C)c3cc2c1C 79.4 µM [inhibitor, partial curve, poor fit]
O=C(/C=C/c1ccc(-c2ccccc2[N+](=O)[O-])o1)c1ccc(Br)cc1 28.2 µM [inhibitor, partial curve, poor fit]
COc1ccc(S(=O)(=O)n2ccnc2)c2cccnc12 100 µM [inhibitor, partial curve, poor fit]
CC(=O)c1ccc(NC(=O)CSc2ccc(-c3sc(C)nc3C)nn2)cc1 22.4 µM [inhibitor, full curve, poor fit]
C/C(=N\O)C(=O)NCC1CCNCC1 0.794 µM [inhibitor, full curve, poor fit]
CC(=O)NS(=O)(=O)c1ccc(NC(=O)c2ccc(NC(=O)c3cccs3)cc2)cc1 100 µM [inhibitor, single point]
CCC(C(=O)O)n1nnc(-c2ccc(-c3ccc(OC)cc3)cc2)n1 (stereo not given) 56.2 µM [inhibitor, partial curve, poor fit]
CCCCSc1nc2sc3c(c2c(=O)n1-c1ccccc1)CCN(C)C3 12.6 µM [inhibitor, partial curve]

As a short view, four of the compounds above:
Potency, inconclusive:
COc1ccc(NC(=O)C2CC(=O)N(Cc3ccc(C)cc3)C2)cc1S(=O)(=O)N1CCCCC1 (stereo not given) 56.2 µM [inhibitor, partial curve, poor fit]
O=C(Nc1ccccc1)C1=C(O)CC(c2ccoc2)CC1=Nc1ccccc1 (stereo not given) 3.16 µM [inhibitor, partial curve, poor fit]
CC(C)CC1Nc2ncnc(N3CCN(c4ccccn4)CC3)c2N(Cc2ccc(Cl)cc2)C1=O (stereo not given) 31.6 µM [inhibitor, full curve]
Nc1ccccc1C#CC(=O)c1ccccc1 11.2 µM [inhibitor, partial curve, poor fit]

Next part.

activity, negative = inhibition, inactive:
O=C(O)/C=C\c1cc2c(cc1[N+](=O)[O-])OCO2 31.1%
COc1ccc(CC(=O)Nc2ccc(-c3nc4ccccc4s3)cc2Cl)cc1OC -3.99%
Cc1ccc(S(=O)(=O)N(CC(=O)NCc2ccco2)c2ccccc2C)cc1 42.4%
Cn1cc(-c2ccccc2C(=O)O)c(=O)c2cc(Cl)ccc21 -10.5%
Cc1ccc(/C=C/c2onc(C)c2S(=O)(=O)N2CCC(C(=O)NCc3ccc(N(C)C)cc3)CC2)cc1 18.3%
CC(C)c1ccc(NC(=O)C2C3C=CC(CC3)C2C(=O)O)cc1 (stereo not given) 185%
CCC1CN(C(=O)Nc2ccccc2C(F)(F)F)c2ccccc2S1 (stereo not given) 1.28%
CN(CC(=O)NCc1ccccn1)S(=O)(=O)c1ccccc1 14.6%
Cc1ccc(-n2ncc(C(=O)NCCCN3CCc4ccccc4C3)c2C2CCN(C(=O)OC(C)(C)C)CC2)cc1C 3.6%
CCOC(=O)C1CCN(C(=O)c2cc3ccc4ccc(C)[nH]c4c3n2)CC1 17.5%
C#CCOCCOCCOCCNc1nc(N2CCOCC2)nc(N2CCN(C(=O)[C@H](Cc3cc4ccccc4[nH]3)n3cc([C@@H](N)CC(C)C)nn3)CC2)n1 -0.61%
